Laboratory results published in patent US6228373A (priority 1995, dated 2001).

Assay: general procedure: peptide synthesis; Tentagel S trt-Pro-Fmoc (Rapp Polymer), 0.18 mmol/g; Fmoc-amino acid pentafluorophenyl esters with HOBT
Settings: whole synthesis, scale 0.20 mmol

For PEPTIDE1{G.P.C.C.P.G}$$$$V2.0, the isolated mass was 84 mg.

HELM strings list residues between dots; [ac] is acetyl, [am] amide, other brackets name non-standard units.
